According to PubChem BioAssay (Tox21):
The source calls these results inconclusive, neither active nor inactive. Unless noted, calls come from the whole dose curve; as a rule, active = well fitted curve in the direction sought with a large enough effect in the repeat runs; inconclusive = weak or mixed curves; inactive = no such curve, though single readings can be large; an effect the other way counts as inactive or inconclusive.

Amino acid sequences for entries named in this document (tags omitted).
UniProt P04150, whole entry: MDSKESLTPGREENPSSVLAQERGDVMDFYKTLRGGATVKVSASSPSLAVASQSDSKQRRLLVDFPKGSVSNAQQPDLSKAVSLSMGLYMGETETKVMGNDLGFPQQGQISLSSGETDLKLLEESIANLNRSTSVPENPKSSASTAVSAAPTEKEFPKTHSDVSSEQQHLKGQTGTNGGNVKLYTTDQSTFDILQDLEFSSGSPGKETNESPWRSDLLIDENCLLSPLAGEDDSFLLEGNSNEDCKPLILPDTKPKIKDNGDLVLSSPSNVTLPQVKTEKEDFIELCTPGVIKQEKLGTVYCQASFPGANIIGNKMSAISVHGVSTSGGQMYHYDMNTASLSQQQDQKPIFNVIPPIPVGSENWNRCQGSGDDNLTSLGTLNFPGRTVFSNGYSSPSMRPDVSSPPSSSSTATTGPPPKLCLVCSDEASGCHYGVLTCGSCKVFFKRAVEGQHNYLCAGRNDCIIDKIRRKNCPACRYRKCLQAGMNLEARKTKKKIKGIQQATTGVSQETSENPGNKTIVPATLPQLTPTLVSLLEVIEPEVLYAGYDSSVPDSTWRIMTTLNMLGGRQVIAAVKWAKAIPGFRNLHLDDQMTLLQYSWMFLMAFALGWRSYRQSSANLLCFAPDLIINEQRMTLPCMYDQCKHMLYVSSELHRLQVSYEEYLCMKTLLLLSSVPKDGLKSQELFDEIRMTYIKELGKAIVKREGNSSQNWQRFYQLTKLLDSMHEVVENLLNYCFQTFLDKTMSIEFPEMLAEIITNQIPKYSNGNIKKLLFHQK
UniProt P19793, whole entry: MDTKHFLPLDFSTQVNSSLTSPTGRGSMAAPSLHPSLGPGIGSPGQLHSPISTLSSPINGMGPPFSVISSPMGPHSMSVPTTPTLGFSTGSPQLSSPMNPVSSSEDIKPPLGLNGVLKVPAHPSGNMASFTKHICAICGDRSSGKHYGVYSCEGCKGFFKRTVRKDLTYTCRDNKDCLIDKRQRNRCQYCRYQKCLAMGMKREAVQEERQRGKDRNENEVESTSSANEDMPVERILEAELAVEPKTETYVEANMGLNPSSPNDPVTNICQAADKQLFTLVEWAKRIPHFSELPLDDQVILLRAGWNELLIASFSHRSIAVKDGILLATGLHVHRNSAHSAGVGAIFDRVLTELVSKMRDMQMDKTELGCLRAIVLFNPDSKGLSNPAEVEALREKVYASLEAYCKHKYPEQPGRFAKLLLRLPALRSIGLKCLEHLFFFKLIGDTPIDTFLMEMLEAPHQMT
UniProt Q92731, whole entry: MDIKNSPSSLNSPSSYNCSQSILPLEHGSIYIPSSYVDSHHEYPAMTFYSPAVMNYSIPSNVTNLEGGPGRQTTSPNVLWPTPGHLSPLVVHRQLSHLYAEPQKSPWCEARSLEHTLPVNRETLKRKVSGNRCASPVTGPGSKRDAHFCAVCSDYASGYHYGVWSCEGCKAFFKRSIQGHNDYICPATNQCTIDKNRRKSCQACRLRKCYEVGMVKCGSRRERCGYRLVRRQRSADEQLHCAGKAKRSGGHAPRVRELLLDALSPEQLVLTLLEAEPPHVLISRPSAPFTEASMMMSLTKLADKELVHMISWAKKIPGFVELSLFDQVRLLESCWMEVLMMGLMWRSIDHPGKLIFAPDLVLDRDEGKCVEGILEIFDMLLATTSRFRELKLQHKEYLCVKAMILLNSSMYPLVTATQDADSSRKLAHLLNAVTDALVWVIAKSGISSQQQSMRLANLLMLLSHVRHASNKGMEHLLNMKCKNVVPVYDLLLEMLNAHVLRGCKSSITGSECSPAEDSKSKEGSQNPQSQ
UniProt P06401, whole entry: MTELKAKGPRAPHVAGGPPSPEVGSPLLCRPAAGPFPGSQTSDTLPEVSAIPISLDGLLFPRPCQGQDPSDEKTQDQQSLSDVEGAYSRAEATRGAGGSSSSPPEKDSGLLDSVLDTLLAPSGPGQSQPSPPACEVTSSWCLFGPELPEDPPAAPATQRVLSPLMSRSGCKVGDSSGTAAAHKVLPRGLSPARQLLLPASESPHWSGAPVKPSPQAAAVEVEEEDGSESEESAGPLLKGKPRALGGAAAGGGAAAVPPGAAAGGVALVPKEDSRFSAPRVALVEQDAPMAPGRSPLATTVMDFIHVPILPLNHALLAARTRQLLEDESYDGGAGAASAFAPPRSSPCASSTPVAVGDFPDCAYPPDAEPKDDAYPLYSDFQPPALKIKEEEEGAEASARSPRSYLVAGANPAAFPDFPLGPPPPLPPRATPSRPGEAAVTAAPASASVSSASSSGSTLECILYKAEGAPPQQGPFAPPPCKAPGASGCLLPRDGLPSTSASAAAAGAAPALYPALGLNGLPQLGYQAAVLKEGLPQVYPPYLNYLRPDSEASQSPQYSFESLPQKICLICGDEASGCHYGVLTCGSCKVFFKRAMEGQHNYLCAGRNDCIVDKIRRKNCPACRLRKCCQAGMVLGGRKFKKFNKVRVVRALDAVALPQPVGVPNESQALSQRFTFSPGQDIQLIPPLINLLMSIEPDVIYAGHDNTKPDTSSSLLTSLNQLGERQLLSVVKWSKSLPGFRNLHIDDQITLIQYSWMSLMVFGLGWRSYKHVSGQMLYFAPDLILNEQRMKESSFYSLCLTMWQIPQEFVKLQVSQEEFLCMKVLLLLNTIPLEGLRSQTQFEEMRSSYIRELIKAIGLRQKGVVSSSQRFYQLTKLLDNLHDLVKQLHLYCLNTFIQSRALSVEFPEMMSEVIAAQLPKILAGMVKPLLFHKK
UniProt P05177, whole entry: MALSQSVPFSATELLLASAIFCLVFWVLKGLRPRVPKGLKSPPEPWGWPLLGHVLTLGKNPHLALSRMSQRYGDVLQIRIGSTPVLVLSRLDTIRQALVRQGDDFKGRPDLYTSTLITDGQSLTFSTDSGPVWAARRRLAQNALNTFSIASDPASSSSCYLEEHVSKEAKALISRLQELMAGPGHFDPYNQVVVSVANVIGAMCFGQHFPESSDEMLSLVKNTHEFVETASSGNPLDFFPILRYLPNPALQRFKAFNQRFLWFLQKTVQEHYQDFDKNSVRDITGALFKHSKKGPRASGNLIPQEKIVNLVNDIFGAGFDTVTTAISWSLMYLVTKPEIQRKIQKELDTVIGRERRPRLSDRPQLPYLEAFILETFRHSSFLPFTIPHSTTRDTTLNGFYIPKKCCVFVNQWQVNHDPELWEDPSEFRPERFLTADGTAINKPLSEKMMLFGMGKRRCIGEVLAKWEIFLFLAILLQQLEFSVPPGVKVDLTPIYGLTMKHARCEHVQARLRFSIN
UniProt P03372, whole entry: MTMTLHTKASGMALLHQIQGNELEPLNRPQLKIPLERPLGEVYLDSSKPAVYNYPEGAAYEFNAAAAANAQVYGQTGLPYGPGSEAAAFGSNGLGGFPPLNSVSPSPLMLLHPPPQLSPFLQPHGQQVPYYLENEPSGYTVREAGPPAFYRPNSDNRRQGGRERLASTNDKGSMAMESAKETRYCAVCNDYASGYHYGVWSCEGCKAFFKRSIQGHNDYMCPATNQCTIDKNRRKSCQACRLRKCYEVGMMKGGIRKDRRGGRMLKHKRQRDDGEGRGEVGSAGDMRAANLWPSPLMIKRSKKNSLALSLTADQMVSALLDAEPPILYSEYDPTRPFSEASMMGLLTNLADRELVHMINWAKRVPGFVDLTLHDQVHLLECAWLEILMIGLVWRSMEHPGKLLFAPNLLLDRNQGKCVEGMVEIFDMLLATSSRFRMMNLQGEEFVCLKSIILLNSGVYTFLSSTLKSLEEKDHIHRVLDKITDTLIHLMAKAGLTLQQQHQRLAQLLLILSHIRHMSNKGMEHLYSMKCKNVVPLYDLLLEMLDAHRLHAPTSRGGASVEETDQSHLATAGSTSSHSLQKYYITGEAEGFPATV
UniProt P33261, whole entry: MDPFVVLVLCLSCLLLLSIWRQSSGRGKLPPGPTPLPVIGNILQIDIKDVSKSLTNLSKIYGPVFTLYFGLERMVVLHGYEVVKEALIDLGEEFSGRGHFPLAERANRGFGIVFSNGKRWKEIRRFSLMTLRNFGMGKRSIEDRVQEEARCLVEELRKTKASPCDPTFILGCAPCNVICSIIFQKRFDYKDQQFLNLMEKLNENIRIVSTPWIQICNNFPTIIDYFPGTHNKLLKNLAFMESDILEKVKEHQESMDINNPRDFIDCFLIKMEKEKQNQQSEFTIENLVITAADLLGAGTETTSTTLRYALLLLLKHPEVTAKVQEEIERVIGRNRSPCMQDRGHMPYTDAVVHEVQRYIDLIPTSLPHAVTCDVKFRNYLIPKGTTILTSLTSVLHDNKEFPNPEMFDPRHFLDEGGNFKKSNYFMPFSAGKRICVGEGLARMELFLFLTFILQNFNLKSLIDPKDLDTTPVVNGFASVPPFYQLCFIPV

What was measured:
[1] = qHTS assay for small molecule disruptors of the mitochondrial membrane potential (AID 720635); conditions: HepG2 mitochondrial membrane potential, Mito-MPS dye ratio; ratio activity, negative = MMP loss: at 83.2 µM (top of the series) unless noted; note: % is set by controls: 0 for no effect and ±100 for the full control effect
In short: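 Mitochondrial membrane potential tracked with Mito-MPS dye, red aggregates (ex 540/em 590 nm) against green monomers (ex 490/em 535 nm). Compound treatment 1 hr at 37C, dye 30 min in HepG2.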

[2] = molecular target: Glucocorticoid receptor (Homo sapiens) (UniProt P04150); assay: qHTS assay to identify small molecule antagonists of the glucocorticoid receptor (GR) signaling pathway (AID 720692; active = well fitted inhibition curve with a large enough effect in the signal ratio in the repeat runs, not every such curve was filed as active; inconclusive = weak or mixed curves, or effect the other way; inactive = no such curve, though single readings can be large or run the other way; the % refers to the signal ratio; note: % is set by controls: 0 for no effect and ±100 for the full control effect); conditions: GR-bla HeLa, beta-lactamase FRET ratio, dexamethasone-stimulated, 18 h
[3] = qHTS assay to identify small molecule antagonists of the thyroid receptor (TR) signaling pathway - cell viability counter screen (AID 743064); conditions: GH3.TRE-Luc viability, CellTiter-Fluor, 24 h; note: potency is the fitted concentration of half-maximal effect; nearly all actives have a fitted effect of over 50% in size
In short: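 Viability of T3-stimulated (1 nM final) GH3.TRE-Luc cells is measured by CellTiter-Fluor fluorescence after 23.5 h compound exposure at 37 °C plus 30 min reagent incubation.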

[4] = qHTS assay for identifying genotoxic compounds that show differential cytotoxicity against isogenic chicken DT40 cell lines with known DNA damage response pathways - wild type cell line (AID 743012); conditions: DT40 wild type chicken cells viability, CellTiter-Glo, 40 h; note: potency is the fitted concentration of half-maximal effect; nearly all actives have a fitted effect of over 60% in size
In short: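 First, wild type DT40 cells were plated at 300 per well and equilibrated about 0.5 h at 37 C/5% CO2. Next, compounds in DMSO were added and exposure lasted 40 h. Finally, CellTiter-Glo was added for 30 min at room temperature and luminescence recorded.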

[5] = qHTS assay for identifying genotoxic compounds that show differential cytotoxicity against isogenic chicken DT40 cell lines with known DNA damage response pathways - Rev3 mutant cell line (AID 743014); conditions: chicken DT40 Rev3-/- viability, CellTiter-Glo, 40 h; note: potency is the fitted concentration of half-maximal effect; nearly all actives have a fitted effect of over 55% in size
[6] = molecular target: Retinoic acid receptor RXR-alpha (Homo sapiens) (UniProt P19793); assay: qHTS assay to identify small molecule agonists of the RXR signaling pathway (AID 1159527; calls by dose curve; note: nearly all actives have a fitted effect of over 35% in size; note: potency is the fitted concentration of half-maximal effect); conditions: HEK293T RXRa-UAS-bla, beta-lactamase ratio, 16 h; activation: at 76.8 µM (top of the series) unless noted
In short: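 Compounds in DMSO were added to RXR-alpha-UAS-bla HEK 293T cells kept in 2% charcoal-stripped serum, and incubated 16 hr at 37 C with 5% CO2. Reporter signal came from a 2 hr B/G FRET substrate step.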

[7] = qHTS assay to identify small molecule antagonists of the estrogen related receptor (ERR) signaling pathway from Tox21 library - cell viability counter screen (AID 1224834); conditions: ERR reporter cells viability, CellTiter-Fluor, 17.5 h; note: potency is the fitted concentration of half-maximal effect; nearly all actives have a fitted effect of over 30% in size
In short: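 After 17.5 h of compound exposure at 37 C, ERR cells are incubated with CellTiter-Fluor for 30 min and fluorescence intensity serves as the viability measure.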

[8] = qHTS assay to identify small molecule antagonists of the estrogen related receptor signaling pathway with the pleiotropic PPARgamma coactivator (PGC) from Tox21 10K library - cell viability counter screen (AID 1224840; active = well fitted cell-killing curve with a large enough effect in the repeat runs, not every such curve was filed as active; inconclusive = weak or mixed curves, or effect the other way; inactive = no such curve, though single readings can be large or run the other way; note: potency is the fitted concentration of half-maximal effect; nearly all actives have a fitted effect of over 40% in size); conditions: PGC/ERR reporter cells viability, CellTiter-Fluor, 17.5 h
In short: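 Following seeding of 2,000 PGC/ERR cells/well and 6 hours' incubation, test compounds were delivered in DMSO. The plates then sat 17.5 hours at 37 C before a fluorogenic live-cell protease reagent (CellTiter-Fluor) was read after 30 min.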

[9] = qHTS RealTime-Glo MT Cell Viability Assay in HEK293 cells - 32 hour (AID 1224868); conditions: RealTime-Glo luminescence; note: potency is the fitted concentration of half-maximal effect; nearly all actives have a fitted effect of over 50% in size
In short: (§1)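 HEK293 cells seeded with NanoLuc/prosubstrate reagent, rested 5 h at 37 C, then dosed and kept at 37 C up to 40 h. Nonlytic real-time luminescence from viable cells read at 0, 8, 16, 24, 32 and 40 h.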

[10] = A CellTox Green Cytotoxicity Assay to monitor cytotoxicity in HEK293 cells - 0 hour (AID 1224869); conditions: CellTox Green fluorescence; note: potency is the fitted concentration of half-maximal effect; nearly all actives have a fitted effect of over 50% in size
In short: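 Fluorescence intensity, read at 0, 8, 16, 24, 32 and 40 h of compound treatment, reflected dye binding to DNA of dead HEK293 cells; compounds (23 nL, DMSO) were added 5 h after plating cells with reagent.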

[11] = qHTS RealTime-Glo MT Cell Viability Assay in HEK293 cells - 40 hour (AID 1224874); conditions: RealTime-Glo luminescence; note: potency is the fitted concentration of half-maximal effect; nearly all actives have a fitted effect of over 50% in size
In short: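 Viable HEK293 cells reduce a cell-permeant prosubstrate; the product diffuses out and is consumed by NanoLuc in the medium to give light. Compounds went in after a 5 h incubation and plates were read over the treatment course.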

[12] = A CellTox Green Cytotoxicity Assay to monitor cytotoxicity in HepG2 cells - 40 hour (AID 1224879); conditions: CellTox Green fluorescence; note: potency is the fitted concentration of half-maximal effect; nearly all actives have a fitted effect of over 40% in size
In short: (§2)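 Using 1536-well format, dye-containing HepG2 suspension was seeded, allowed 5 h at 37 C/5% CO2, dosed by pintool with compounds, positive and negative controls, and imaged for fluorescence across 40 h.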

[13] = A CellTox Green Cytotoxicity Assay to monitor cytotoxicity in HepG2 cells - 32 hour (AID 1224883); conditions: CellTox Green fluorescence
In short: as §2

[14] = qHTS RealTime-Glo MT Cell Viability Assay in HEK293 cells - 24 hour (AID 1224886); conditions: RealTime-Glo luminescence
In short: as §1

[15] = molecular target: Estrogen receptor beta (Homo sapiens) (UniProt Q92731); assay: qHTS assay to identify small molecule antagonists of the estrogen receptor beta (ER-beta) signaling pathway (AID 1259378; active = well fitted inhibition curve with a large enough effect in the signal ratio in the repeat runs, not every such curve was filed as active; inconclusive = weak or mixed curves, or effect the other way; inactive = no such curve, though single readings can be large or run the other way; the % refers to the signal ratio; note: % is set by controls: 0 for no effect and ±100 for the full control effect); conditions: ER-beta-UAS-bla HEK293T, beta-lactamase FRET ratio, 16 h; activity, negative = inhibition: at 92.4 µM (top of the series) unless noted
In short: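 Antagonist mode: compounds added to beta-lactamase reporter HEK293T ER-beta-UAS cells stimulated with E2 (1nM final), 16 hr at 37C. LiveBLAzer B/G FRET substrate, 2 hours room temperature, fluorescence read-out.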

[16] = qHTS assay to identify small molecule agonists of the androgen receptor (AR) signaling pathway in the presence of an antagonist - cell viability counter screen (AID 1259379); conditions: MDA-kb2 viability, CellTiter-Fluor, 16 h; note: potency is the fitted concentration of half-maximal effect; nearly all actives have a fitted effect of over 25% in size
In short: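 Seed MDA-kb2 at 3,000 cells/well; incubate 5 hr, 37C, 0% CO2. Add nilutamide to 3.0uM final, then pin compounds at 15 concentrations. Incubate 16 hr. Add CellTiter-Fluor at 15 hr, read fluorescence after 1 hr.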

[17] = qHTS assay to identify small molecule agonists of the estrogen receptor beta (ER-beta) signaling pathway - cell viability counter screen (AID 1259380); conditions: ER-beta-bla HEK293T viability, CellTiter-Glo luminescence, 16 h; note: potency is the fitted concentration of half-maximal effect; nearly all actives have a fitted effect of over 30% in size
In short: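 CellTiter-Glo read, 30 min RT, same wells as bla assay; cells ER-beta-UAS-bla HEK293T; 16 hr compound, 37C; medium 2% charcoal-stripped FBS.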

[18] = qHTS assay to identify small molecule agonists of the estrogen receptor alpha (ER-alpha) signaling pathway in the presence of an antagonist - cell viability counter screen (AID 1259386); conditions: VM7Luc4E2 viability, CellTiter-Fluor fluorescence, 22 h;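 note: potency is the fitted concentration of half-maximal effect; cells exposed to compounds for 22 h at 37 °C before the viability read; nearly all actives have a fitted effect of over 30% in size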
In short: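 Viability counter screen using VM7Luc4E2 (full-length ER-alpha, four ERE-luciferase). The cells were treated with compounds alongside ICI-182,780 10.0nM for 22hr, and live-cell protease fluorescence was quantified with CellTiter-Fluor.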

[19] = molecular target: Progesterone receptor (Homo sapiens) (UniProt P06401); assay: qHTS assay to identify small molecule agonists of the progesterone receptor (PR) signaling pathway (AID 1346784; calls by dose curve; note: potency is the fitted concentration of half-maximal effect; nearly all actives have a fitted effect of over 30% in size); conditions: PR-UAS-bla HEK293T, beta-lactamase FRET ratio, 16 h; activation: at 92.4 µM (top of the series)
In short: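 Fluorescence from LiveBLAzer B/G FRET substrate cleavage (2 hr, RT) reported PR activation in PR-UAS-bla HEK 293T cells treated 16 hr at 37C/5% CO2 with compounds; medium contained 2% charcoal-stripped FBS.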

[20] = molecular target: Progesterone receptor (Homo sapiens) (UniProt P06401); assay: qHTS assay to identify small molecule antagonists of the progesterone receptor (PR) signaling pathway (AID 1346795; active = well fitted inhibition curve with a large enough effect in the signal ratio in the repeat runs, not every such curve was filed as active; inconclusive = weak or mixed curves; the % refers to the signal ratio; note: % is set by controls: 0 for no effect and ±100 for the full control effect); conditions: PR-UAS-bla HEK293T, beta-lactamase FRET ratio, 16 h; activity change, negative = inhibition: at 92.4 µM (top of the series) unless noted
In short: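 Fluorescence intensity measured 2 hr after adding beta-lactamase FRET substrate to PR-UAS-bla HEK293T cells that had been co-treated 16 hr with compound and 1 nM R5020 (final concentration) in 2% charcoal-stripped FBS.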

[21] = qHTS assay to identify small molecule agonists of the progesterone receptor (PR) signaling pathway - cell viability counter screen (AID 1346799; calls by dose curve; note: potency is the fitted concentration of half-maximal effect; nearly all actives have a fitted effect of over 45% in size); conditions: PR-UAS-bla HEK293T viability, CellTiter-Glo luminescence, 16 h
In short: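 In parallel with the beta-lactamase readout, cytotoxicity toward PR-UAS-bla HEK293T cells was measured by CellTiter-Glo luminescence following 16 hr compound incubation in 2% charcoal-stripped FBS medium.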

[22] = molecular target: Cytochrome P450 1A2 (Homo sapiens) (UniProt P05177); assay: Cytochrome P450 Family 1 Subfamily A Member 2 (CYP1A2) small molecule antagonists: luciferase reporter qHTS assay (AID 1671199); conditions: P450-Glo CYP1A2 enzyme, luciferin luminescence, 1 h
[23] = qHTS assay to identify small molecule agonists of the RXR signaling pathway - cell viability counter screen (AID 1159529); conditions: RXR-alpha-bla HEK293T viability, CellTiter-Glo, 16 h
In short: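 Counter screen: CellTiter-Glo luminescence. Cells: RXR-alpha-UAS-bla HEK 293T. Medium: 2% charcoal-stripped FBS. Treatment: 16 h, 37 C. Reagent incubation: 30 min, RT.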

[24] = qHTS assay to identify small molecule agonists of the estrogen related receptor signaling pathway with the pleiotropic PPARgamma coactivator (PGC) from Tox21 10K library (AID 1224842); conditions: PGC/ERR reporter cell line, luciferase ONE-Glo, 18 h; note: potency is the fitted concentration of half-maximal effect; nearly all actives have a fitted effect of over 15% in size
In short: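 Luminescence from One-Glo (30 min, room temperature) measured after PGC/ERR cells had 18 h at 37 C with pinned compound (23 nL in DMSO). Cells had been seeded at 2,000 per well and pre-incubated 6 h.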

[25] = molecular target: Estrogen receptor (Homo sapiens) (UniProt P03372); assay: qHTS assay to identify small molecule antagonists of the estrogen receptor alpha (ER-alpha) signaling pathway using the BG1 cell line in the presence of 0.1 nM 17-beta-estradiol (AID 1259244); conditions: VM7Luc4E2 (BG1) ERE-luciferase, antagonist mode, 0.1 nM E2, 22 h
[26] = qHTS assay to identify small molecule antagonists of the estrogen receptor alpha (ER-alpha) signaling pathway - cell viability counter screen (AID 743074; calls by dose curve;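 note: HEK293 cells carrying ER-alpha-UAS-bla reporter stimulated with 17beta-estradiol; potency is the fitted concentration of half-maximal effect; nearly all actives have a fitted effect of over 45% in size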); conditions: ERalpha-bla HEK293 viability, CellTiter-Glo luminescence, 18 h
[27] = qHTS assay to identify small molecule antagonists of the peroxisome proliferator-activated receptor delta (PPARd) signaling pathway - cell viability counter screen (AID 743213); conditions: PPARd-bla HEK293H viability, CellTiter-Glo luminescence, 17 h; viability change, negative = cytotoxic: at 62 µM (top of the series)
In short: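 PPARd-bla HEK293H cells (3000/well) got compound plus 300 nM L165041 agonist for 17 h at 37 C. Viability in the same wells came from CellTiter-Glo luminescence after 30 min at room temperature.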

[28] = qHTS assay to identify small molecule agonists of the AP-1 signaling pathway (AID 1159526; calls by dose curve; note: % is set by controls: 0 for no effect and ±100 for the full control effect); conditions: ME-180 (cervical carcinoma) AP-1-bla reporter, beta-lactamase FRET ratio, 5 h; at 76.8 µM (top of the series) unless noted
[29] = qHTS assay to identify small molecule agonists of the retinoic acid receptor (RAR) signaling pathway (AID 1159553); conditions: C3RL4 RARE luciferase reporter, agonist, 6 h; at 73.3 µM (top of the series); note: % is set by controls: 0 for no effect and ±100 for the full control effect
In short: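 Reporter readout comes from luciferase under RARE control in C3RL4 cells; compound exposure lasts 6 hr at 37 C in 5% CO2, and luminescence is recorded following a 30 min room-temperature incubation with reagent.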

[30] = qHTS assay to identify small molecule antagonists of the estrogen related receptor signaling pathway with the pleiotropic PPARgamma coactivator (PGC) from Tox21 10K library (AID 1224841; call rule not given here); conditions: PGC/ERR reporter cell line, ONE-Glo luciferase, 18 h
[31] = qHTS assay to identify small molecule agonists of the hypoxia (HIF-1) signaling pathway - cell viability counter screen (AID 1224844; calls by dose curve); conditions: HRE-bla ME-180 viability, CellTiter-Glo luminescence, 17 h
In short: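 Cells (HRE-bla ME-180, 2,000 per well) sat 5 hrs at 37C, got compound for 17 hrs, were read for CCF4-AM FRET, and were finally lysed with CellTiter-Glo for a 30 min room-temperature luminescence read.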

[32] = molecular target: Cytochrome P450 2C19 (Homo sapiens) (UniProt P33261); assay: Cytochrome P450 Family 2 Subfamily C Member 19 (CYP2C19) small molecule antagonists: luciferase reporter qHTS assay (AID 1671197); conditions: P450-Glo CYP2C19 enzyme, luciferin luminescence, 1 h; note: potency is the fitted concentration of half-maximal effect; nearly all actives have a fitted effect of over 65% in size
In short: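 P450-Glo CYP2C19 system: enzyme-substrate mix with compound 10 min at room temperature, then NADPH regeneration solution, 1 h at 37C. Proluciferin-to-luciferin conversion detected by luminescence after 20 min with detection reagent; ketoconazole as positive control.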

CC(C)OP(=O)(F)OC(C)C
inconclusive: ratio activity, negative = MMP loss [1] 9.17% | activity change, negative = inhibition ([2]; at 58.5 µM (top of the series)) -2.77% | Potency [3] 0.944 µM

CC(C)OP(C)(=O)OC(C)C
inconclusive: Potency [4] 34.4 µM | Potency [5] 43.3 µM | Potency [6] 12.3 µM | activation [6] -0.938% | Potency [7] 43.3 µM | Potency [8] 48.6 µM | Potency [9] 38.9 µM | Potency [10] 55 µM | Potency [11] 38.9 µM | Potency [12] 61.7 µM | Potency [13] 61.7 µM | Potency [14] 49 µM | activity, negative = inhibition [15] -44.1% | Potency [16] 43.3 µM | Potency [17] 68.6 µM | Potency [18] 68.6 µM | Potency [19] 1.72 µM | activity change, negative = inhibition [20] -28.9% | Potency [21] 0.273 µM

CCOP(=O)(CC)OCC
inconclusive: ratio activity, negative = MMP loss [1] 9.79% | activity change, negative = inhibition [20] 4.43% | Potency [22] 38.9 µM

CN(C)CCCl
inconclusive: activation [6] -7.99% | Potency [23] 54.9 µM | Potency [24] 68.6 µM | Potency [25] 48.6 µM

COP(C)(=O)OC
inconclusive: activity change, negative = inhibition ([2]; at 78.9 µM (top of the series)) 14.9% | Potency [26] 38.9 µM | viability change, negative = cytotoxic [27] -14.1% | activation [28] 13.2% | activation [29] 0.0362% | Potency [30] 24.3 µM | Potency [31] 3.47 µM | Potency [32] 82.2 µM
